# Test results: PubChem BioAssay AID720504 (National Center for Advancing Translational Sciences (NCATS), 2013)
# Sequences of proteins named here, by UniProt entry; tags and fusion partners are left off.
# UniProt P53350, whole entry, looked up: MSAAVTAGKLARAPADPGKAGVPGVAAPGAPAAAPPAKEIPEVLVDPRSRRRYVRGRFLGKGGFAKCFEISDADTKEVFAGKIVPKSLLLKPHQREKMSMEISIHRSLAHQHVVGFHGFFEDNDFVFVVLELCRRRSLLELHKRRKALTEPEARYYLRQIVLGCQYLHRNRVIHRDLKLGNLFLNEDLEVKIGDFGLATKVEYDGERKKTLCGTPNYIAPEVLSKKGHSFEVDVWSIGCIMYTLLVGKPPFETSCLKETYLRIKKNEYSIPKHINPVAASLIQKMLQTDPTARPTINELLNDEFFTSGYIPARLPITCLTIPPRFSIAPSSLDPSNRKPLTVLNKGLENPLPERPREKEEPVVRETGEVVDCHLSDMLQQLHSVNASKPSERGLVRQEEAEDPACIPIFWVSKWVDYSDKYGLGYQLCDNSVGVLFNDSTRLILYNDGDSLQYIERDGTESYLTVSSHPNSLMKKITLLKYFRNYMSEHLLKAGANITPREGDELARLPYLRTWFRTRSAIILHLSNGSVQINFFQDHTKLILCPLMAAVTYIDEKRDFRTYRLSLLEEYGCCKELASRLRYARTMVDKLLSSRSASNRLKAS
# Screen size: about 360,000 compounds; about 10,000 (2.8%) were called active. The inconclusive results got no clear call from the source; some entries with a clear call stand among them for comparison. Calls follow the shape of the dose curve; as a rule, active = well fitted inhibition curve with a large enough effect; inconclusive = small, poorly fitted or top-dose-only effect; inactive = flat fitted curve, though single readings scatter. Potencies beside an inconclusive call are fits to weak or partial responses and may not hold up.
# Molecular target: Serine/threonine-protein kinase PLK1 (Homo sapiens) (UniProt P53350)
# Experiment: qHTS for Inhibitors of PLK1-PDB (polo-like kinase 1 - polo-box domain): Primary Screen; also: nearly all actives have a fitted effect of over 65% in size; as to max response, negative = inhibition: series mostly up to about 57 µM
# Conditions: Plk1 PBD binding of FITC phosphopeptide, fluorescence polarization
# % is scaled to controls: 0 for no effect and ±100 for the full control effect; potency is read from the fitted curve at half-maximal effect.
SMILES,Potency,"max response, negative = inhibition"
O=S(=O)(Nc1cccc(-c2cn3c(n2)SCC3)c1)c1ccccc1,"inconclusive: 13.4 µM [inhibitor, partial curve]",–
N#C/C(=C/c1ccc([N+](=O)[O-])cc1)C(N)=O,–,inactive: -20.6%
O=C(O)COc1ccc(-c2nccc(-c3ccccn3)n2)cc1,active: 18.9 µM,–
Cc1cc([N+](=O)[O-])c(-c2ccc(/C=N/n3cnnc3)o2)cc1Cl,"inconclusive: 67 µM [inhibitor, partial curve]",–
O=C(NC(=C(Cl)Cl)S(=O)(=O)c1ccc(Cl)cc1)c1ccccc1,"inconclusive: 23.8 µM [inhibitor, single point]",–
O=C(C[n+]1ccccc1)N/N=C/c1ccc(O)cc1,active: 26.7 µM,–
CC(=O)Nc1ccc(NC(=O)[C@H](C)NC(=O)c2ccco2)cc1,–,inactive: -4.21%
COc1ccc(CN2CCCC(C(=O)N3CCc4ccccc4C3)C2)cc1OC (stereo not given),"inconclusive: 21.2 µM [inhibitor, partial curve]",–
Cc1ccc(S(=O)(=O)NC(C(=O)Oc2ccc3c(C)c(Cl)c(=O)oc3c2)c2ccccc2)cc1 (stereo not given),"inconclusive: 37.7 µM [inhibitor, partial curve]",–
COC(=O)c1ccccc1-c1ccc(/C=C2\C(=O)N(c3ccccc3)N=C2c2ccccc2)o1,"inconclusive: 3.55 µM [inhibitor, full curve]",–
COc1cc2c(cc1NC(=O)Cc1ccc(C)cc1)oc1ccccc12,"inconclusive: 5.97 µM [inhibitor, partial curve]",–
CC1CCCN(S(=O)(=O)c2ccccc2[N+](=O)[O-])C1 (stereo not given),"inconclusive: 26.7 µM [inhibitor, partial curve]",–
S=c1nc(C2COc3ccccc3O2)[nH][nH]1 (stereo not given),"inconclusive: 29.9 µM [inhibitor, partial curve]",–
O=C(O)c1cccc(N2C(=O)C3C4C=CC(C4=C(c4ccccc4)c4ccccc4)C3C2=O)c1 (stereo not given),active: 29.9 µM,–
COCC(=O)Nc1cc([N+](=O)[O-])ccc1C,active: 11.9 µM,–
Cc1[nH]c(N)nc(=S)c1CCCNc1ccccc1,"inconclusive: 33.6 µM [inhibitor, partial curve]",–
CCCCN(C)C(=O)c1cn(C)c2ccc(S(=O)(=O)N(C)C)cc2c1=O,"inconclusive: 29.9 µM [inhibitor, partial curve]",–
N#Cc1cccc(NC(=O)CSc2ccccc2)c1,"inconclusive: 29.9 µM [inhibitor, partial curve]",–
COc1cccc(-c2nnc(SCc3ccccn3)n2C)c1,"inconclusive: 33.6 µM [inhibitor, single point]",–
O=C(NC1CCCCC1)n1c(=O)oc2ccccc21,"inconclusive: 26.7 µM [inhibitor, partial curve]",–
C=CCn1c(SCCOC)nc2c1c(=O)[nH]c(=O)n2C,"inconclusive: 26.7 µM [inhibitor, partial curve]",–
O=C(NCCNCc1ccccc1)c1ccco1,"inconclusive: 23.8 µM [inhibitor, partial curve]",–
CC(C)(C)N(Cc1cc2ccccc2[nH]c1=O)C(=O)c1ccco1,"inconclusive: 37.7 µM [inhibitor, partial curve, poor fit]",–
COc1cc(N=C2C(=O)N3CCCc4cccc2c43)cc(OC)c1,–,inconclusive: -30.6% [inhibitor]

SMILES,Potency,"max response, negative = inhibition"
CCN(CC)c1ccc(NC(=O)c2ccccc2F)cc1S(=O)(=O)Nc1ccccc1OC,active: 10.6 µM,–
CCOC(=O)c1c(C)sc2c1N(C(=O)CCl)c1cc(Cl)ccc1S2,"inconclusive: 6.7 µM [inhibitor, partial curve]",–
CCCCn1nnnc1C(c1cc2ccccc2o1)N1CCN(C(=O)OCC)CC1 (stereo not given),–,inactive: -6.86%
O=C(CCN1C(=O)/C(=C/c2ccccc2Cl)SC1=S)Nc1ccccc1C(=O)O,active: 23.8 µM,–
Cc1noc(C)c1S(=O)(=O)Nc1ccc2c(c1)C(=O)N([C@H](C)CO)C[C@H](C)[C@@H](CN(C)C(=O)NC(C)C)O2,–,inconclusive: -37.3% [inhibitor]
Cn1nc(-c2ccc(OCC(=O)Nc3cccnc3)cc2)c2ccccc2c1=O,–,inactive: -4.77%
Nc1ccc2nc[nH]c2c1,"inconclusive: 26.7 µM [inhibitor, single point]",–
CC1=CC(C)(C)Nc2ccc(OC(=O)CN3C(=O)c4cccc5cccc(c45)C3=O)cc21,–,inconclusive: -33.7% [inhibitor]
O=C(Nc1nnc(SCc2ccc(F)cc2)s1)C1Cc2ccccc2CN1C(=O)c1ccco1 (stereo not given),active: 26.7 µM,–
CC(Nc1nc(=S)nc(Nc2ccc(F)cc2)[nH]1)c1ccccc1 (stereo not given),active: 13.4 µM,–
CSc1cccc(-n2cc(-c3ccc4c(c3)OCO4)[nH]c2=O)c1,"inconclusive: 26.7 µM [inhibitor, single point]",–
O=C1SC(SCc2ccccc2)=N/C1=C\c1ccco1,"inconclusive: 26.7 µM [inhibitor, partial curve]",–
FC(F)(F)C1CCCN(c2nsc3ccccc23)C1 (stereo not given),active: 1.5 µM,–
C#CCSc1nsc(SCC#C)c1C#N,"inconclusive: 23.8 µM [inhibitor, single point]",–
Cc1cccc(/N=C2/NC(=O)C(Cc3ccccc3)S2)n1 (stereo not given),active: 29.9 µM,–
O=S(=O)(Nc1nc2ccccc2nc1Nc1cccc(S(=O)(=O)N2CCCCC2)c1)c1ccccc1,"inconclusive: 21.2 µM [inhibitor, single point]",–
Cc1ccc(S(=O)(=O)N2[C@@H](c3ccc(Br)cc3)C(C(=O)O)=C[C@H]2CC2CCCC2)cc1,active: 23.8 µM,–
CCOc1cc(/C=C2/C(=O)ON=C2C)ccc1OCc1ccccc1F,active: 0.844 µM,–
CCOc1cc(C2c3c(-c4ccccc4)n[nH]c3C(=O)N2c2ccc(C(=O)O)cc2)ccc1O (stereo not given),"inconclusive: 75.2 µM [inhibitor, partial curve]",–
FC(F)(F)c1ccccc1NC(=S)N/N=C1\CC2CC=CC12 (stereo not given),"inconclusive: 26.7 µM [inhibitor, single point]",–
COc1ccc(-c2cc(NC=O)c3ncc(-c4cccc(OC)c4)n3c2)cc1,"inconclusive: 21.2 µM [inhibitor, single point]",–
O=[N+]([O-])/C(C(Cl)=C(Cl)Cl)=C(/NC1CC1)Sc1ccccc1,"inconclusive: 4.23 µM [inhibitor, single point]",–
Cc1ccc(SCC(=O)c2ccc(CC(=O)O)s2)cc1,"inconclusive: 26.7 µM [inhibitor, partial curve]",–
CN1C=CC=C/C1=C1\SC(=S)N(c2ccccc2)C1=O,–,inactive: -19%

SMILES,Potency,"max response, negative = inhibition"
COc1ccccc1C(=O)Nc1ccnn1C1CCN(C(=O)C2CCOC2)CC1 (stereo not given),–,inconclusive: -13.3% [inhibitor]
CN(Cc1ccccc1)C(=O)[C@@H]1CCCN1,–,inactive: -15.1%
CC1CCCC(C)N1C(=S)NCc1ccco1 (stereo not given),"inconclusive: 29.9 µM [inhibitor, partial curve]",–
CC(=O)Nc1ccc(OCC(O)Cn2ccnc2C)cc1 (stereo not given),–,inconclusive: -19.2% [inhibitor]
CCN(CC)c1ccc(NC(=O)COc2ccccc2C#N)cc1S(=O)(=O)Nc1ccccc1OC,active: 5.32 µM,–
S=C(Nc1ccc(CN2CCCCC2)cc1)Nc1cccc(Cl)c1Cl,"inconclusive: 26.7 µM [inhibitor, single point]",–
Cc1ccc(SCc2[nH]nc3c2C(c2ccc(C)o2)C(C#N)=C(N)O3)cc1 (stereo not given),"inconclusive: 21.2 µM [inhibitor, partial curve]",–
CCCC(=O)NC(c1ccccc1OC)c1ccc2cccnc2c1O (stereo not given),"inconclusive: 21.2 µM [inhibitor, partial curve]",–
CC(C)C[C@@H](CN)NC(=O)c1nc[nH]c1C(=O)N[C@@H](Cc1ccccc1)C(=O)CNC[C@H](C)NC(=O)c1nc[nH]c1C(=O)N[C@@H](C)C(=O)O,"inconclusive: 23.8 µM [inhibitor, single point]",–
Oc1ccc(/C=N/Nc2cc(N3CCCC3)nc(N3CCCC3)n2)cc1O,"inconclusive: 0.474 µM [inhibitor, full curve, poor fit]",–
CCC(=O)Nc1cc(NC(=O)CSc2ncc(-c3ccc(F)cc3)n2Cc2ccco2)ccc1C,–,inactive: -4.7%
COc1ccccc1CNCc1ccc(OC)c2ccccc12,"inconclusive: 37.7 µM [inhibitor, single point]",–
CC(Sc1nnc(-c2ccc(Cl)cc2Cl)n1Cc1ccccc1)C(=O)Nc1nccs1 (stereo not given),"inconclusive: 37.7 µM [inhibitor, single point]",–
COC(=O)c1ccc(-n2cc(-c3ccc(OC)cc3)[nH]c2=S)cc1,active: 6.7 µM,–
N#CC(=C1CCCC1)c1nc(-c2ccccc2O)cs1,–,inconclusive: -33.5% [inhibitor]
Fc1ccc(-n2c(CN3CCCCC3)n[nH]c2=S)cc1,"inconclusive: 23.8 µM [inhibitor, partial curve]",–
O=C(C1CCCCC1)N1CCC2CC1c1cc(Cl)ccc12 (stereo not given),–,inactive: -0.589%
Cn1c(SCC(=O)c2cc3ccccc3o2)nnc1-c1ccccc1,"inconclusive: 26.7 µM [inhibitor, partial curve]",–
CC(OC(=O)c1cc(=O)[nH]c2ccccc12)C(=O)NC1CCCC1 (stereo not given),–,inactive: -16.9%
Cc1cc(C)cc(NC(=S)N(Cc2ccc(Br)cc2)Cc2ccc(C(=O)O)cc2)c1,"inconclusive: 29.9 µM [inhibitor, single point]",–
COCCCNC(=O)C1CCN(c2nc(C)cc(C)n2)CC1,–,inactive: 0.652%
CC(NS(=O)(=O)c1ccccc1)C(c1cccs1)N1CCOCC1 (stereo not given),–,inactive: -4.66%

# 16 compounds out of the list, arranged by SMILES length, rising.
SMILES,Potency,"max response, negative = inhibition"
CC1CCCC(C)N1C(=S)NCc1ccco1 (stereo not given),"inconclusive: 29.9 µM [inhibitor, partial curve]",–
CN(Cc1ccccc1)C(=O)[C@@H]1CCCN1,–,inactive: -15.1%
COc1ccccc1CNCc1ccc(OC)c2ccccc12,"inconclusive: 37.7 µM [inhibitor, single point]",–
CC(=O)Nc1ccc(OCC(O)Cn2ccnc2C)cc1 (stereo not given),–,inconclusive: -19.2% [inhibitor]
N#CC(=C1CCCC1)c1nc(-c2ccccc2O)cs1,–,inconclusive: -33.5% [inhibitor]
COCCCNC(=O)C1CCN(c2nc(C)cc(C)n2)CC1,–,inactive: 0.652%
CCCC(=O)NC(c1ccccc1OC)c1ccc2cccnc2c1O (stereo not given),"inconclusive: 21.2 µM [inhibitor, partial curve]",–
Cn1c(SCC(=O)c2cc3ccccc3o2)nnc1-c1ccccc1,"inconclusive: 26.7 µM [inhibitor, partial curve]",–
CC(NS(=O)(=O)c1ccccc1)C(c1cccs1)N1CCOCC1 (stereo not given),–,inactive: -4.66%
Oc1ccc(/C=N/Nc2cc(N3CCCC3)nc(N3CCCC3)n2)cc1O,"inconclusive: 0.474 µM [inhibitor, full curve, poor fit]",–
COc1ccccc1C(=O)Nc1ccnn1C1CCN(C(=O)C2CCOC2)CC1 (stereo not given),–,inconclusive: -13.3% [inhibitor]
Cc1ccc(SCc2[nH]nc3c2C(c2ccc(C)o2)C(C#N)=C(N)O3)cc1 (stereo not given),"inconclusive: 21.2 µM [inhibitor, partial curve]",–
CC(Sc1nnc(-c2ccc(Cl)cc2Cl)n1Cc1ccccc1)C(=O)Nc1nccs1 (stereo not given),"inconclusive: 37.7 µM [inhibitor, single point]",–
Cc1cc(C)cc(NC(=S)N(Cc2ccc(Br)cc2)Cc2ccc(C(=O)O)cc2)c1,"inconclusive: 29.9 µM [inhibitor, single point]",–
CCC(=O)Nc1cc(NC(=O)CSc2ncc(-c3ccc(F)cc3)n2Cc2ccco2)ccc1C,–,inactive: -4.7%
CC(C)C[C@@H](CN)NC(=O)c1nc[nH]c1C(=O)N[C@@H](Cc1ccccc1)C(=O)CNC[C@H](C)NC(=O)c1nc[nH]c1C(=O)N[C@@H](C)C(=O)O,"inconclusive: 23.8 µM [inhibitor, single point]",–
